Laboratory results reported in patent US20100298285A1, “Biclycloheteroaryl Compounds as P2x7 Modulators and Uses Thereof” (priority 2006, published 2010).
The name of at least one read-out is uncertain.

Test system: IL-1β release, THP-1 cells
Experiment: IL-1β release assay in differentiated THP-1 cells stimulated with BzATP (Example 9)
Assay type: cell-based, human
Settings: BzATP 250 uM, "+" symbols = inhibition at 0.3 μM, "*" symbols = inhibition at 0.1 μM
Outline: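 THP-1 cells differentiated 16 h with 100 ng/mL LPS + 100 ng/mL IFN-γ, re-primed 2 h with fresh LPS 100 ng/mL, pretreated 30 min with compound, then stimulated with BzATP 250 uM final for 45 min. Supernatant IL-1β by ELISA; background-adjusted % inhibition, IC50 from four-parameter logistic fit.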

SMILES	IL-1β% Inhib. @ 0.3 or 0.1 μM
O=C(Cc1cccc(C(F)(F)F)c1F)Nc1c(Cl)ccc2c1CCN(S(=O)(=O)c1ccccc1OC(F)(F)F)C2 [Compound 3284]	+++ (compound exhibited 51-75% inhibition at 0.3 μM concentration)
O=C(Cc1cccc(C(F)(F)F)c1F)Nc1c(Cl)ccc2c1CCN(S(=O)(=O)c1ccccc1Cl)C2 [Compound 3285]	++ (compound exhibited 26-50% inhibition at 0.3 μM concentration)
CC(C)c1ccc(S(=O)(=O)N2CCc3c(ccc(Cl)c3NC(=O)Cc3ccc(C(F)(F)F)c(F)c3)C2)cc1 [Compound 3286]	+ (compound exhibited 0-25% inhibition at 0.3 μM concentration)
O=C(Cc1ccc(C(F)(F)F)c(F)c1)Nc1c(Cl)ccc2c1CCN(S(=O)(=O)c1ccccc1Cl)C2 [Compound 3287]	++++ (compound exhibited 76% or greater inhibition at 0.3 μM concentration)
O=C(Cc1ccc(C(F)(F)F)c(F)c1)Nc1c(Cl)ccc2c1CCN(S(=O)(=O)c1ccccc1Oc1ccccc1)C2 [Compound 3288]	+ (compound exhibited 0-25% inhibition at 0.3 μM concentration)
O=C(Cc1cccc(C(F)(F)F)c1F)Nc1c(Cl)ccc2c1CCN(S(=O)(=O)c1ccc(Oc3ccc(Cl)c(Cl)c3)cc1)C2 [Compound 3289]	+ (compound exhibited 0-25% inhibition at 0.3 μM concentration)
O=C(Cc1cccc(C(F)(F)F)c1F)Nc1c(Cl)ccc2c1CCN(S(=O)(=O)c1ccc(Oc3ccc(C(F)(F)F)cc3)cc1)C2 [Compound 3290]	+ (compound exhibited 0-25% inhibition at 0.3 μM concentration)
CCCS(=O)(=O)N1CCc2c(ccc(Cl)c2NC(=O)Cc2cccc(C(F)(F)F)c2F)C1 [Compound 3291]	++ (compound exhibited 26-50% inhibition at 0.3 μM concentration)
COc1ccc(OC)c(S(=O)(=O)N2CCc3c(ccc(Cl)c3NC(=O)Cc3cccc(C(F)(F)F)c3F)C2)c1 [Compound 3292]	++ (compound exhibited 26-50% inhibition at 0.3 μM concentration)
COc1ccc(-c2ccc(S(=O)(=O)N3CCc4c(ccc(Cl)c4NC(=O)Cc4ccc(C(F)(F)F)c(F)c4)C3)cc2)cc1 [Compound 3293]	+ (compound exhibited 0-25% inhibition at 0.3 μM concentration)
O=C(Cc1cccc(C(F)(F)F)c1F)Nc1c(Cl)ccc2c1CCN(S(=O)(=O)c1csc3ccccc13)C2 [Compound 3294]	+ (compound exhibited 0-25% inhibition at 0.3 μM concentration)
Cc1c(Cl)cccc1S(=O)(=O)N1CCc2c(ccc(Cl)c2NC(=O)Cc2ccc(C(F)(F)F)c(F)c2)C1 [Compound 3295]	++ (compound exhibited 26-50% inhibition at 0.3 μM concentration)
O=C(Cc1ccc(C(F)(F)F)c(F)c1)Nc1c(Cl)ccc2c1CCN(S(=O)(=O)c1ccc(OC(F)F)cc1)C2 [Compound 3296]	++ (compound exhibited 26-50% inhibition at 0.3 μM concentration)
O=C(Cc1ccc(C(F)(F)F)c(F)c1)Nc1c(Cl)ccc2c1CCN(S(=O)(=O)c1ccccc1-c1ccccc1)C2 [Compound 3297]	+ (compound exhibited 0-25% inhibition at 0.3 μM concentration)
O=C(Cc1ccc(C(F)(F)F)c(F)c1)Nc1c(Cl)ccc2c1CCN(S(=O)(=O)c1cc(Cl)ccc1Cl)C2 [Compound 3298]	++ (compound exhibited 26-50% inhibition at 0.3 μM concentration)
Cc1noc(C)c1S(=O)(=O)N1CCc2c(ccc(Cl)c2NC(=O)Cc2cccc(C(F)(F)F)c2F)C1 [Compound 3299]	+++ (compound exhibited 51-75% inhibition at 0.3 μM concentration)
O=C(Cc1cccc(C(F)(F)F)c1F)Nc1c(Cl)ccc2c1CCN(S(=O)(=O)c1ccccc1F)C2 [Compound 3300]	+ (compound exhibited 0-25% inhibition at 0.3 μM concentration)
O=C(Cc1ccc(C(F)(F)F)c(F)c1)Nc1c(Cl)ccc2c1CCN(S(=O)(=O)c1cccc(Oc3ccc(Cl)c(Cl)c3)c1)C2 [Compound 3301]	++ (compound exhibited 26-50% inhibition at 0.3 μM concentration)
